## Screening data, single-dose tests

From ChEMBL document CHEMBL3988442, “University of Dundee, Small-Polar-MMV Screening Library” (2021).

Each number is a percent effect as filed.
The controls that fix the scale are not given in the record; negative values are as filed.
Compounds were drawn at random from those tested, without regard to their results.

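Whole-parasite assay of Trypanosoma brucei over 72 hours; the read-out is not stated. Concentration: 30 µM. Direction is inferred from retests: higher values go with stronger inhibition. Values scatter widely below zero; nearly all retest evidence comes from the higher of the two concentrations used. Size under these conditions: about 64,000 compounds, about 940 of them at 50% or above in at least one test.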

SMILES	Percent Effect
Cc1cc(CN(C)C(C(=O)O)c2ccc(C(C)(C)C)cc2)on1 (centres unmarked)	-76.51
CC(=O)N1CCC(Oc2ccc(Cl)cn2)CC1	-110.4
CCn1nc(C)cc1S(=O)(=O)N1CCC2(CC(=O)NC2=O)C1 (centres unmarked)	-16.27
CN(Cc1cccnc1)Cc1cncc2c1CCN(Cc1ccoc1)C2.Cl.Cl.Cl	-64.05
O=C(Nc1cnc2n1CCCC2)c1cccc(OCC(F)(F)F)c1	-42.66
CS(=O)(=O)NC(=O)c1cc(Cl)c2c(c1)OCCCO2	1.76
CCCOc1ccc(CNC(=O)N2CCC(C(N)=O)C2)cc1 (centres unmarked)	-40.01
O=C(C1CC1)N1CCCC(C2=Nc3ccccc3S(=O)(=O)N2)C1 (centres unmarked)	-8.818
CC(NC(=O)N1CCC(n2cncn2)CC1)c1ccc(F)cc1F (centres unmarked)	18.63
CCCc1cc(C(=O)N[C@@H](CO)[C@@H](O)c2ccccc2)n(C)n1	-20.17
CC(C)(C)C(C#N)NC(=O)c1ccc(Oc2cccnc2)cc1 (centres unmarked)	-16.06
O=C(NCCN1CCOCC1)NCC(O)c1cccc(F)c1 (centres unmarked)	11.63
COCC(=O)N1CCCn2c(CN3CCCC3=O)nnc2C1	-47.22
Cc1nn(C)c(C)c1C1CCCN1CCOc1cccc(C#N)c1 (centres unmarked)	8.205
COc1ccccc1CC(=O)N(C)Cc1cc(C)on1	-10.42
CC(C)COCCCNC(=O)c1cccnc1N1CCOCC1	-25.17
Cc1cc(CN(C)C2CCCN(Cc3noc(C)n3)C2)no1 (centres unmarked)	-25.02
Cc1ccc(CCNC(=O)NC2CCN(CC(F)(F)F)C2=O)cn1 (centres unmarked)	-13.92
O=C(c1ccco1)N1CCCC(c2cc(C(F)(F)F)n3ncnc3n2)C1 (centres unmarked)	-7.137
CC(=O)c1cc(Br)cc(F)c1OCC(=O)NC(C)C	-26.52
[H][C@@]12CCCCN(C)[C@]1([H])[C@@H](c1ccccc1)CCN2C(=O)c1ccccn1	12.07
CCCc1nnc(NC(=O)N2CCCC(NC(C)=O)C2)s1 (centres unmarked)	3.238
COc1ccc(Cl)cc1CS(=O)(=O)Cc1nc(C)no1	-16.02
Cc1nc(CN2CCCC(N(C)CC3(O)CCCCC3)C2)no1 (centres unmarked)	-16.79
Cc1nn(C)cc1-c1cc(C(=O)N2CCc3ncc(Cl)cc3C2)on1	-5.881
Cc1noc(C)c1CCC(=O)Nc1ccn(C)n1	-11.77
CCC(C)(NCC(=O)Nc1nc(C)cs1)c1nc(C)cs1 (centres unmarked)	-27.71
CS(=O)(=O)c1nccn1Cc1ccc(Cl)cc1	-27.31
O=C1C(NCc2ccccc2O)CCN1Cc1ccccc1 (centres unmarked)	2.327
CCOCc1nn(C)c2c1CN(C(=O)c1ccno1)CC2	-18.28
CNC(=O)c1cccc(CNC2CCCSc3ccccc32)c1 (centres unmarked)	-36.75
Cn1ccc(C(=O)NC2CCC23CCN(C(=O)C2CCOCC2)CC3)c1 (centres unmarked)	-11.82
CCN(CC)C(=O)CN1CCc2c(nc(C3CCNCC3)nc2NC)C1.Cl	-24.06
Cc1ccc(O)c(CNCC(C)c2nc3ccccc3o2)n1 (centres unmarked)	3.491
N#Cc1ccc(NCCC2CCN(CC(F)(F)F)CC2)nc1	-38.62
CN1CCN([C@@H]2CN(C(=O)CCOc3ccccc3)C[C@H]2O)CC1	-4.458
CCn1ncnc1C1CC(=O)NCc2nc(N3CCCC3)sc21 (centres unmarked)	-45.35
COC(=O)[C@@H](NC(=O)c1snnc1-c1ccc(OC)cc1)C(C)C	-4.192
COc1ccc(CN(Cc2cccnc2)CC2CCCO2)c(OC)c1.O=C(O)CC(O)(CC(=O)O)C(=O)O (centres unmarked)	-5.449
NC1CCCCN(Cc2ccccc2CS(=O)(=O)c2ccccc2)C1 (centres unmarked)	-3.435
CC(=O)c1c(C)nn(CC(=O)Nc2ccc(Br)cc2)c1C	101.3
CCN1CCOCC12CCN(C(=O)Cc1cccs1)CC2.O=C(O)C(F)(F)F	-18.12
CCCN1CCC(N2CCC(Cn3cc(C4CC4)nn3)CC2)CC1	-53.08
CCCC(O)CN1CCC(=O)N(CCOC)Cc2cc3c(cc21)OCO3 (centres unmarked)	-35.14
CCOc1ccccc1CCN1Cc2ncccc2C1=O	-13.65
Cc1cc(C)nc(N2CCCC(c3cccc(-n4ccnc4)n3)C2)n1 (centres unmarked)	-1.611
COCC(=O)N1CCN(c2cc(C)nc(C3CCCN3C(C)=O)c2)CC1 (centres unmarked)	2.565
COc1ccc(CNC(=O)NC2CCN(CC(F)F)CC2)cc1C	11.38
N#Cc1cnn(-c2ccc(C(=O)Nc3ccccn3)cc2)c1N	-2.943
COc1nc2c(cc1C(=O)N(C)Cc1[nH]nc3c1CCC3)CCC2	-25.15
O=C(NC1CC1)C1CCCN1c1ncnc2ccsc12 (centres unmarked)	-12.17
O=C(NCC1CCCO1)N1CCN(Cc2ccc3c(c2)CCO3)CC1 (centres unmarked)	17.02
NC1(c2nc(-c3cccs3)cc(=O)[nH]2)CCCC1	-61.3
Cc1nc2nc(C)c3c(=O)n(-c4ccn[nH]4)ccc3n2n1	-7.217
Br.COc1ccc(C(=O)CN(C2=NCCCCC2)c2ccccc2)cc1	-18.84
CSc1ccsc1C(=O)NS(=O)(=O)c1cccc(C#N)c1	7.116
Cc1cccc(N2CCc3ncc(CNS(C)(=O)=O)n3CC2)n1.O=C(O)C(F)(F)F	-56.07
CC(c1ccco1)N(C)Cc1nc2c(cnn2C)c(=O)[nH]1 (centres unmarked)	2.684
CN(C)S(=O)(=O)N1CC(c2nc(N)ncc2-c2ccc(F)cc2)C1	10.62
O=C(N[C@@H]1CCN(c2nc3ccccc3o2)C[C@H]1O)c1cnccn1	4.926
CC(C)NS(=O)(=O)c1cc(C(=O)O)cc(-c2ccccc2CN(C)C)c1	-36.88
CC(C(=O)N1CCCC1)N1CCCN(C(=O)Oc2ccccc2)CC1 (centres unmarked)	-15.29
[H][C@@]12CN(Cc3cccs3)C[C@H](C(=O)Nc3cccnc3)[C@]1([H])CCO2	-56.78
COc1cccc(S(=O)(=O)CCN2CCn3c(C)nnc3C2)c1	-13.45
Cc1ccsc1[C@@H]1CCN(C(=O)Cc2ccc(O)cc2)C[C@H]1O	-49.59
O=C(C1CCS(=O)(=O)C1)N1CCC(=Cc2cccc(F)c2)CC1 (centres unmarked)	-66.18
CCn1nc(C)c(CCNC(=O)c2cccc(-n3cccn3)c2)c1C	-8.719
CC(C)(C)NC(=O)NC(=O)CNc1c(F)cccc1N1CCCC1	-52.35
Cc1nccc(-c2cccc(NCC(=O)N3CCCCCCC3)c2)n1	-43.47
CN1N=C(C(=O)Nc2cc(F)ccc2OCC2CCCO2)CCC1=O (centres unmarked)	20.36
O=C1NCC2(CCCN(C(=O)CCn3cnc4ccccc43)CC2)O1 (centres unmarked)	-8.679
Cc1ccc(C)c(NC(=O)Nc2c[nH]c(=O)[nH]c2=O)c1	-55.52
O=C(NCC(O)COc1cccc(F)c1)c1ccoc1 (centres unmarked)	-112.5
CN(Cc1cn(C2CCNCC2)nn1)CC1CCCO1 (centres unmarked)	-34.57
CN1CCCC2(CC1)CCN(C(=O)CCc1ccccc1F)CC2	-9.921
CC(C)(C)n1ncc2c1NC(=O)CC2c1cccc(O)c1 (centres unmarked)	9.671
O=C(NCCn1cccc1)C1CCCOC1 (centres unmarked)	2.367
Cn1ccnc1CN1CCC2(CC1)CC(Nc1ccccn1)CO2 (centres unmarked)	-43.37
O=C(NCC1CCCCC1)NC1CCCc2c1cnn2CCO (centres unmarked)	-28.76
CC1(C)CN(C(=O)CCc2nc(-c3ccncc3)no2)CCO1	-28.29
O=C(O)C(F)(F)F.[H][C@@]12CCN(Cc3ccoc3)C[C@]1([H])OCCN(Cc1cccc(F)c1)C2=O	-10.53
CC(=O)N[C@@H]1CN(C(=O)c2ccoc2)C[C@H]1c1ccc(C)cc1	-26.38
Cc1nc(O)cc(CCNC(=O)c2ccc(CN3CCCCC3)cc2)n1	0.652
Cc1nc(CNC(=O)NC2CCN(c3ncccn3)CC2)cs1	-41.36
CCN1CCC(=O)N(C)Cc2cc(F)ccc21	-14.85
CCCc1cnc(C)nc1N1CCC(Cn2cc(CN(C)C)nn2)CC1	-38.22
O=C(c1csc(-c2ccco2)n1)N1CCN2CCCCC2C1 (centres unmarked)	-4.897
O=C(CNC(=O)Nc1cccc(-c2nccs2)c1)NCCO	-11.83
Cc1nn(C)c2cnn(Cc3ccc(C(=O)N4CCN(C)CC4)o3)c12	-18.09
Cc1nc(CN2CCCC(NCc3sccc3C)C2)no1 (centres unmarked)	-11.3
O=C(Nc1ccccc1OC(F)(F)F)C1CCS(=O)(=O)C1 (centres unmarked)	-13.96
CC(Cn1cccn1)NC(=O)NCc1cccnc1OC1CCCC1 (centres unmarked)	-20.1
CCC(CC)n1nc(C)cc1NC(=O)C1CCOC1 (centres unmarked)	-17.48
CCC(O)CN1CCN(C(=O)c2cc(Cl)cc3cccnc23)CC1 (centres unmarked)	-13.78
Cc1noc(C)c1CNS(=O)(=O)N(C)Cc1ccc(Cl)cc1	-24.77

Some entries from above, unchanged:

| SMILES | Percent Effect |
|---|---|
| `CC(NC(=O)N1CCC(n2cncn2)CC1)c1ccc(F)cc1F` (centres unmarked) | 18.63 |
| `Cc1nn(C)c(C)c1C1CCCN1CCOc1cccc(C#N)c1` (centres unmarked) | 8.205 |
| `CCN1CCOCC12CCN(C(=O)Cc1cccs1)CC2.O=C(O)C(F)(F)F` | -18.12 |
| `CC(C(=O)N1CCCC1)N1CCCN(C(=O)Oc2ccccc2)CC1` (centres unmarked) | -15.29 |
| `Cc1cc(CN(C)C(C(=O)O)c2ccc(C(C)(C)C)cc2)on1` (centres unmarked) | -76.51 |
| `COc1cccc(S(=O)(=O)CCN2CCn3c(C)nnc3C2)c1` | -13.45 |
| `Cc1nn(C)c2cnn(Cc3ccc(C(=O)N4CCN(C)CC4)o3)c12` | -18.09 |
| `CC(=O)N1CCC(Oc2ccc(Cl)cn2)CC1` | -110.4 |